For 5 molecules, binding results are on record in PMC5807400.

Chains of the proteins cited; added tags and fusions are not shown. Residues count along the entry.
UniProt Q658Y4: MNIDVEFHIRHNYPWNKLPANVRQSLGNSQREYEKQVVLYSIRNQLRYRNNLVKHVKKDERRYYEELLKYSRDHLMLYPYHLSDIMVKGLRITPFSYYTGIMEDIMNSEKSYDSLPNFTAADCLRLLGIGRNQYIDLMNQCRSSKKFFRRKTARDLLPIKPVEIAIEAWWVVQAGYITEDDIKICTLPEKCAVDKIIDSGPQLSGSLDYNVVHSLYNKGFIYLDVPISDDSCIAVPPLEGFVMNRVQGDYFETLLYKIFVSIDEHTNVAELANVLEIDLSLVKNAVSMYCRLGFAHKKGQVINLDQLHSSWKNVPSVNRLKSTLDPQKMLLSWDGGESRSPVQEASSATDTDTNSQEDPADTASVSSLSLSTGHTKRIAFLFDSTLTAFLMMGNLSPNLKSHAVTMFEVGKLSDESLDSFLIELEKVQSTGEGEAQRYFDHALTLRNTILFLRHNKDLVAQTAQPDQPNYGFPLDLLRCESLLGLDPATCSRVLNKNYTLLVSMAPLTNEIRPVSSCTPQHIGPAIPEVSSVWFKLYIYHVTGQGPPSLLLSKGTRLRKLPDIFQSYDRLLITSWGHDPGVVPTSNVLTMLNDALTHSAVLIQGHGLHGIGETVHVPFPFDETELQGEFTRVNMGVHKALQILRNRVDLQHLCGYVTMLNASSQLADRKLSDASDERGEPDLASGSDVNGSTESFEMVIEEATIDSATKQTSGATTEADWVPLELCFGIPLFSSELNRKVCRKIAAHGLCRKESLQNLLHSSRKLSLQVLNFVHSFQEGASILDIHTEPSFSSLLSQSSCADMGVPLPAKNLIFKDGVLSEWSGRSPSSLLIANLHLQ
UniProt P11717, residues 41-2491: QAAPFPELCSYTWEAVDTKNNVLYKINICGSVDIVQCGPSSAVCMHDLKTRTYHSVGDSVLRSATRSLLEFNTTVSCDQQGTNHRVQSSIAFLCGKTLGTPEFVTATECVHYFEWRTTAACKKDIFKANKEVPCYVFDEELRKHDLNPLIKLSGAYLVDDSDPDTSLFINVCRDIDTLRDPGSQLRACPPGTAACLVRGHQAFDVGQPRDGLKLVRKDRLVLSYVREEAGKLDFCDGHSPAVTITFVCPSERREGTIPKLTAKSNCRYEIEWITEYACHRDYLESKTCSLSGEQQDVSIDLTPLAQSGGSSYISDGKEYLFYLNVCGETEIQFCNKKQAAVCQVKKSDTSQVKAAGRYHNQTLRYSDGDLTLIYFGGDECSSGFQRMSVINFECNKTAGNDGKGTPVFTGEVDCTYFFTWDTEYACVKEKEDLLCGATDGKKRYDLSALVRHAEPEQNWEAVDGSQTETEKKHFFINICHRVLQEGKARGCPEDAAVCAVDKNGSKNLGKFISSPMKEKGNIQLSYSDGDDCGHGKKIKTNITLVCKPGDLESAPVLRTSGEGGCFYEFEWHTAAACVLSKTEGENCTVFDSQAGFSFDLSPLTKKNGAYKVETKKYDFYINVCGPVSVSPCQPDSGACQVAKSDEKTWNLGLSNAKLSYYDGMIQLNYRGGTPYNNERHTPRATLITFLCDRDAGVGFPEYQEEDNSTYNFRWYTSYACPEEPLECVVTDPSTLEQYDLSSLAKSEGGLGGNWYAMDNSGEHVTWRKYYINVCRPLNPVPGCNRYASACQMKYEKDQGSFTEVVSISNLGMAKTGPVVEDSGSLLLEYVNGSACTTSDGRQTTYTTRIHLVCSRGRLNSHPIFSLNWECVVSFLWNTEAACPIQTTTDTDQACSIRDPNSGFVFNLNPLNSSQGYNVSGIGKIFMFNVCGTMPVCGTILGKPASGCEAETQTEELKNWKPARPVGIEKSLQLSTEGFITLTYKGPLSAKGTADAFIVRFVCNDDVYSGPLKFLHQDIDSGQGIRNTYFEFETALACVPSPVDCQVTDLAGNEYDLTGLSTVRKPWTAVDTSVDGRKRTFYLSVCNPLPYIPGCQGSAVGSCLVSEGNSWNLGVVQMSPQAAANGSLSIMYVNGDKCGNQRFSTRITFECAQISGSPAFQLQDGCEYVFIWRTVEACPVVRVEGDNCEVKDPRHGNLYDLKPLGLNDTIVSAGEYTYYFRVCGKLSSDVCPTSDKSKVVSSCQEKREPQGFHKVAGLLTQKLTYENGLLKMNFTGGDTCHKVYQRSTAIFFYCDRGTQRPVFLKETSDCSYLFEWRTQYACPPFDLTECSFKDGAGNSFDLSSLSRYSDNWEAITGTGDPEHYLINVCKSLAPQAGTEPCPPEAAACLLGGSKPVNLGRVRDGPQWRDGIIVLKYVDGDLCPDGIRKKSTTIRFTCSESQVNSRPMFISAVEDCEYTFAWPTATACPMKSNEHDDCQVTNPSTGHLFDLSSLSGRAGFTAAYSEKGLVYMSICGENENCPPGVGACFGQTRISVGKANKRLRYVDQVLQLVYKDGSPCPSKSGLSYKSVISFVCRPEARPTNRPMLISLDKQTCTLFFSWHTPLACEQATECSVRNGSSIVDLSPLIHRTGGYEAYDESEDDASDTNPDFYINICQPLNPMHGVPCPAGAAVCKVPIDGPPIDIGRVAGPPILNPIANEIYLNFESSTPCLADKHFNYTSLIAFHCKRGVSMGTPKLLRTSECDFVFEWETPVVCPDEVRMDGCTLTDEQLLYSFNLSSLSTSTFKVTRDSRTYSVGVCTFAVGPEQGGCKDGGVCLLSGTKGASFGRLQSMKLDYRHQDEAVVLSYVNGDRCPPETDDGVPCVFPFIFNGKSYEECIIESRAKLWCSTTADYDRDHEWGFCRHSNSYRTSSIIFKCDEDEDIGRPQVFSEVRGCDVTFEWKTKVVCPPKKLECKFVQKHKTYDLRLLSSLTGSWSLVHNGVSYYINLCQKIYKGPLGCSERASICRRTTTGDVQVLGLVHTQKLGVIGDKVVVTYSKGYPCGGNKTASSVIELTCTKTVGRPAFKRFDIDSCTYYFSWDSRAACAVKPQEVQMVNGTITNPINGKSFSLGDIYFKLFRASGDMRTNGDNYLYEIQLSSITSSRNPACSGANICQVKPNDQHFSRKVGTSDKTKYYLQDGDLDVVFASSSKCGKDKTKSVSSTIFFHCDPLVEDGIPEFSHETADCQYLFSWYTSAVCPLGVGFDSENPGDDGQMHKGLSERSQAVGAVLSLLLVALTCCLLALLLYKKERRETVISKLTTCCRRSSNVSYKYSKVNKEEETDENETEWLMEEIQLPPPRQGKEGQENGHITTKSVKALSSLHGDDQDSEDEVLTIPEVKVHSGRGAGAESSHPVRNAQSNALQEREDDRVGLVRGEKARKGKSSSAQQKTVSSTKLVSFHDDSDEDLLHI
UniProt P20340: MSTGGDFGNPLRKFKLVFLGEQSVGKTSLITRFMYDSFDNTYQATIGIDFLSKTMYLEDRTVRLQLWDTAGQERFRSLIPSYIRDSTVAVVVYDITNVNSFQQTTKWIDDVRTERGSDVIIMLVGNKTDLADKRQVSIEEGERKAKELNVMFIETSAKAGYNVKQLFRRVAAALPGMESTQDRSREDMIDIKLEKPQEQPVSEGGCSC

For test [1], the target named is BirA*-tagged FAM91A1 (human) (UniProt Q658Y4). Kind of test: proximity labelling; BioID: RPE cells stably expressing BirA*-tagged WDR11, FAM91A1 or C17orf75, 50 µM biotin for 24 h; lysis in RIPA buffer; biotinylated proteins captured on streptavidin agarose; label-free mass spectrometry against BirA* only and GFP-BirA* controls, four replicates.
Test [2] has as its target T1, BirA*-tagged WDR11 (human) (UniProt Q9BZH6).
T1 sequence: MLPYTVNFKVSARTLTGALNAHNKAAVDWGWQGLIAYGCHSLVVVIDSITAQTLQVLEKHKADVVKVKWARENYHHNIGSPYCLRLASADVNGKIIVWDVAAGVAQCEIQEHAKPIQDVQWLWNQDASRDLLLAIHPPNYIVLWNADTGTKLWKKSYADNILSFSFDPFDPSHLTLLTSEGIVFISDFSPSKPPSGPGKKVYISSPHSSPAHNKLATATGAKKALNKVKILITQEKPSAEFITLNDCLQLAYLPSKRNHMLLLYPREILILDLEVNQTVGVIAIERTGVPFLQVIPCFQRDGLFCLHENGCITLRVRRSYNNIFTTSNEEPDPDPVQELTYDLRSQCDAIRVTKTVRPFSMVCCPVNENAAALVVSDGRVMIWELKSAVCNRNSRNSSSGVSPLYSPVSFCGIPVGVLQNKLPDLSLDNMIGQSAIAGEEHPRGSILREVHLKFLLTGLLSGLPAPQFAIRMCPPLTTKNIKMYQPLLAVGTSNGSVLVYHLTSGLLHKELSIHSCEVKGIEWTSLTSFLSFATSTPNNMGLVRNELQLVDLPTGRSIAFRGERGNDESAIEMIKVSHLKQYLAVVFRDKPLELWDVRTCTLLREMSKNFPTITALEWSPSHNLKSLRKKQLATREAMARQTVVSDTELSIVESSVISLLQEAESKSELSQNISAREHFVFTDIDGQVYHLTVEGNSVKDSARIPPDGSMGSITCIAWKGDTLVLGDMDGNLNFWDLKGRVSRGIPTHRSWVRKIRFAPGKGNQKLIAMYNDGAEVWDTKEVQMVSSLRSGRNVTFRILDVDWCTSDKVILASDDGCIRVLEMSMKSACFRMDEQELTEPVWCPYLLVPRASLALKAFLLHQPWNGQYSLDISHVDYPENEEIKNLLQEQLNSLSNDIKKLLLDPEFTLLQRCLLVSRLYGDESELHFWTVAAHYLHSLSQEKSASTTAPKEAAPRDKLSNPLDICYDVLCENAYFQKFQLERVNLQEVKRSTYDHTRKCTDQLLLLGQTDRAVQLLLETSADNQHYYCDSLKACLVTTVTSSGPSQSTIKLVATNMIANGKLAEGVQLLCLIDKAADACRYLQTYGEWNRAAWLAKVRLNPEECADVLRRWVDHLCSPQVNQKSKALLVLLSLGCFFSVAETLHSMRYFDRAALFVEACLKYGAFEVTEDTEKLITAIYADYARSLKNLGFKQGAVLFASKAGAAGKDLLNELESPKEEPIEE
Described as above.

Test [3] addresses T2, BirA*-tagged C17orf75 (human) (UniProt Q9HAS0).
T2 sequence: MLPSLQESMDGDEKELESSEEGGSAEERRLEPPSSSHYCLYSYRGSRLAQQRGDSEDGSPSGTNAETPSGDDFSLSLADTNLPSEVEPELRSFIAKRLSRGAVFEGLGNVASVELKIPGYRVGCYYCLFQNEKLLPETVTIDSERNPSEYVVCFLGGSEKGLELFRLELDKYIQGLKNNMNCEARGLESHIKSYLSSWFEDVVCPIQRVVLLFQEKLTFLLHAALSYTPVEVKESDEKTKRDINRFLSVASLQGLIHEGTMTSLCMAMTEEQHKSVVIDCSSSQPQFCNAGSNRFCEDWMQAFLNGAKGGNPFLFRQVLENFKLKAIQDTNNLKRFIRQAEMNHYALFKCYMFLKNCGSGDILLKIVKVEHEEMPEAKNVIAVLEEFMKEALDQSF
The test is described as above.

For test [4], the target named is T3, WDR11 (human (endogenous in HeLa and RPE)) (UniProt Q9BZH6).
T3 sequence: T1 sequence
Kind of test: affinity purification with mass spectrometry; native immunoprecipitation with anti-WDR11 from extracts of wild-type HeLa cells, WDR11-knockout cells as control; PBS with 1% Triton, 4 °C; protein A Sepharose; co-precipitating proteins identified by mass spectrometry.

In test [5] the target is T4, C17orf75 (human (endogenous in HeLa and RPE)) (UniProt Q9HAS0).
T4 sequence: T2 sequence
Kind of test: affinity purification with mass spectrometry; native immunoprecipitation with anti-C17orf75 from lysates of wild-type, WDR11-disrupted and FAM91A1-disrupted HeLa cells; PBS with 1% Triton, 4 °C; mass spectrometry.

These are yes or no findings as the source states them, for the method shown. In cells and extracts the contact can be indirect. A yes stands for co-enrichment or nearness to the bait. Other partners may have been found. For some assays here: Where a sequence is shown, tags or fusion partners need not be part of it.

Regarding “cation-independent mannose 6-phosphate receptor (from UniProt P11717 41-2491)”, the binding result in test [1], in test [2] and in test [3] was “binds” in each case.
In the case of Rab6A (from UniProt P20340 1-208), the binding result in test [2] is listed as “binds”.
In the case of FAM91A1 (from UniProt Q658Y4 1-838), the binding entry in test [4], in test [2], in test [3] and in test [5] was “binds” throughout.

B1: C17orf75 (protein, UniProt Q9HAS0 1-396)
chain: T2 sequence
For the molecule B1, the binding result in test [4], in test [1] and in test [2] was “binds” each time.

B2: WDR11 (protein, UniProt Q9BZH6 1-1224)
chain: T1 sequence
Turning to B2, the binding entry in test [1], in test [3] and in test [5] was “binds” each time.
